Experimental data published in US20050089938A1, “Use of peptide fragments of the calcium channel a-1 subunit, optionally comprising mutations, for screening molecules of therapeutic interest” (priority 2001, published 2005).
These are yes or no findings as the source states them, for the method shown. Some binding calls cover weakened binding; strength is not graded here.

By UniProt entry, the sequences of proteins in these tests, tags left out. Where a name states a change or a piece, a line headed by the entry shows the natural chain unless it says otherwise.
UniProt P27884: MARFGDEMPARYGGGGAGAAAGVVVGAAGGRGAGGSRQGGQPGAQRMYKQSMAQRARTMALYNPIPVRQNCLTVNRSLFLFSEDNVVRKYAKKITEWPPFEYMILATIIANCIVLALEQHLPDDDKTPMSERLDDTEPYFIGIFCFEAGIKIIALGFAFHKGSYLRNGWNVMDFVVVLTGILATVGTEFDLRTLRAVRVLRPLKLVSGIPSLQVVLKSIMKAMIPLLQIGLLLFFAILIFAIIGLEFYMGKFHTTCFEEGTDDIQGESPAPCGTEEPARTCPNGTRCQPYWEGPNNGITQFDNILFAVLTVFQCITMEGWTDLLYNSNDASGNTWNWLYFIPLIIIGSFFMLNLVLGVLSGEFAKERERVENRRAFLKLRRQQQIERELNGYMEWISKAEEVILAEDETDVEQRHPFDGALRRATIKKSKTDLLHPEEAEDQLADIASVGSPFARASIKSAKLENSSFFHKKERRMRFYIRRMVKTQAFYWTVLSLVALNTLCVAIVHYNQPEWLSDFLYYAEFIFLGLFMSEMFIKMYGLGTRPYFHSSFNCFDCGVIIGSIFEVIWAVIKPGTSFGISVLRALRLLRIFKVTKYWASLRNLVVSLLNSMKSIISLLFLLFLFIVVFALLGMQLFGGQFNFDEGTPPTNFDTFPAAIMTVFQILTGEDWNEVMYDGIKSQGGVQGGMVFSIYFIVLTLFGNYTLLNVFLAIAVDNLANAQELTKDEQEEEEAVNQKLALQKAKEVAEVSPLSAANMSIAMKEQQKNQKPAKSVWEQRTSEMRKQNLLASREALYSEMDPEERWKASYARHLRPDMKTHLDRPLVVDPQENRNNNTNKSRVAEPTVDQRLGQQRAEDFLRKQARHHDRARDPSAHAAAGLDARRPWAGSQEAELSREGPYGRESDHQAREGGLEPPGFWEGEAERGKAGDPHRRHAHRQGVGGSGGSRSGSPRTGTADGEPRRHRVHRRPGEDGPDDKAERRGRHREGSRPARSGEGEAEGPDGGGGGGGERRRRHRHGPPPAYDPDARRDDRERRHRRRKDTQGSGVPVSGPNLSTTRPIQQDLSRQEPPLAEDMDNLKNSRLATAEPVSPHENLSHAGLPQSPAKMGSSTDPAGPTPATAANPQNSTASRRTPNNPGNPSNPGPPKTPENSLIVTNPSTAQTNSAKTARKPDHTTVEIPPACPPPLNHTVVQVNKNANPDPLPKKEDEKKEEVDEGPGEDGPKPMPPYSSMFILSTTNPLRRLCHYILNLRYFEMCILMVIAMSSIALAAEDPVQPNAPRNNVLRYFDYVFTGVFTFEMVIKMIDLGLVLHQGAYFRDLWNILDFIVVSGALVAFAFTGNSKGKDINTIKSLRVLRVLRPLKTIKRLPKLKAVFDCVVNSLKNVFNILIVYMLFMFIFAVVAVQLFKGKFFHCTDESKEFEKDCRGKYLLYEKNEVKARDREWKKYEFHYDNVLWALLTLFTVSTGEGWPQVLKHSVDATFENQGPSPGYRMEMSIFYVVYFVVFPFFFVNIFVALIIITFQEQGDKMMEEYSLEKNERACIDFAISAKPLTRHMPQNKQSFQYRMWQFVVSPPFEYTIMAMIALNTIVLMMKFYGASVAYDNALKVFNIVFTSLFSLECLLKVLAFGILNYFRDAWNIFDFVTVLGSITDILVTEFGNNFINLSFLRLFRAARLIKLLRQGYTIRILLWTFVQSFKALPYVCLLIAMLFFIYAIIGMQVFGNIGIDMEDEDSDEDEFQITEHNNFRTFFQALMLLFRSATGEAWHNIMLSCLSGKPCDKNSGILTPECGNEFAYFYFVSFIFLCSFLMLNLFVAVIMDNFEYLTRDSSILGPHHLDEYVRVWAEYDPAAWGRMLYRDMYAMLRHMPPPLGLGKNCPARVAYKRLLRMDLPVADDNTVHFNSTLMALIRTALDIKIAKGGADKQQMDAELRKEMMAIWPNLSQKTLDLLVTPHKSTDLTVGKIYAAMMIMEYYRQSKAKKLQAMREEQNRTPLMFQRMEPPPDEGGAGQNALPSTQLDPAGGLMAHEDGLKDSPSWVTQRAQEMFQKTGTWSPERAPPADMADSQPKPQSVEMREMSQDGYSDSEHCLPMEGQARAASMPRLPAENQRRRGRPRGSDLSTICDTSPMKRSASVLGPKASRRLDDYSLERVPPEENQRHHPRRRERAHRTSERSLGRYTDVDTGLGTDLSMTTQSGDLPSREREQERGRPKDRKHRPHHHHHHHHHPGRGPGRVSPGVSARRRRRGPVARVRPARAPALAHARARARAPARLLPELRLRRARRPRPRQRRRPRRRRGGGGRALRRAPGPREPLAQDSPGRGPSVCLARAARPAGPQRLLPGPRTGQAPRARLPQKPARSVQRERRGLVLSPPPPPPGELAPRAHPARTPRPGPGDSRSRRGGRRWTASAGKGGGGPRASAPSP

Target: GST-III-IV fusion protein (III-IV loop of Cav2.1 expressed and purified as a Glutathione-S-Transferase fusion protein) (human or rabbit) (UniProt O00555)
Experiment: binding of 35S-methionine-labelled in vitro translated I-II loop to GST-III-IV fusion protein (FIG. 2)

## I-II loop of the Cav2.1 sub-unit of the calcium channels of rabbit neuronal cells, translated in vitro and labelled with 35S-methionine (from UniProt P27884 360-487)
  binding: binds
